The values below come from publication PMC11396530.

Chains of the proteins cited; added tags and fusions are not shown. Residues count along the entry.
UniProt P11021, residues 19-654: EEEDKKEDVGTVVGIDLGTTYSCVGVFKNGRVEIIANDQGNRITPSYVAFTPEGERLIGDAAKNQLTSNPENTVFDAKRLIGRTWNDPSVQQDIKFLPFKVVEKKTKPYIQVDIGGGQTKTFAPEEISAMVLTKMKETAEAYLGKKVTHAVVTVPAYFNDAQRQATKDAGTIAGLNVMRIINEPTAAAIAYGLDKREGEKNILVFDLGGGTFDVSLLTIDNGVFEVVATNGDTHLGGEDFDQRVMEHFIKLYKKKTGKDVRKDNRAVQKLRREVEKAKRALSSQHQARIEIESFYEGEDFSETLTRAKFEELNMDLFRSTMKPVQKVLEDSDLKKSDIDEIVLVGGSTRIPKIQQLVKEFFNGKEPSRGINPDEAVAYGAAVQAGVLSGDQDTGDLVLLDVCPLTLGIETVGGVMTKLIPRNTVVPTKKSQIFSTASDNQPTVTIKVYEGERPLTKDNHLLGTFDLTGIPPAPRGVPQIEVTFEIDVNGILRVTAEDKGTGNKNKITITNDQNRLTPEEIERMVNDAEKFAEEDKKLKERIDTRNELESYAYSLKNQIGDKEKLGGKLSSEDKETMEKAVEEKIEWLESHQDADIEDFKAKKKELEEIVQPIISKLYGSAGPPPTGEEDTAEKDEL

No constants are given. Whether binding was seen depends on the method and setting. Binding seen in cells or lysates may run through a third protein. A yes stands for co-enrichment or nearness to the bait. Other partners may have been found. Where a sequence is shown, tags or fusion partners need not be part of it.

The assay has as its target T1, glucosidase I (GCS1), endogenous (human (endogenous in DLD-1 and RKO)) (UniProt Q13724).
T1 sequence: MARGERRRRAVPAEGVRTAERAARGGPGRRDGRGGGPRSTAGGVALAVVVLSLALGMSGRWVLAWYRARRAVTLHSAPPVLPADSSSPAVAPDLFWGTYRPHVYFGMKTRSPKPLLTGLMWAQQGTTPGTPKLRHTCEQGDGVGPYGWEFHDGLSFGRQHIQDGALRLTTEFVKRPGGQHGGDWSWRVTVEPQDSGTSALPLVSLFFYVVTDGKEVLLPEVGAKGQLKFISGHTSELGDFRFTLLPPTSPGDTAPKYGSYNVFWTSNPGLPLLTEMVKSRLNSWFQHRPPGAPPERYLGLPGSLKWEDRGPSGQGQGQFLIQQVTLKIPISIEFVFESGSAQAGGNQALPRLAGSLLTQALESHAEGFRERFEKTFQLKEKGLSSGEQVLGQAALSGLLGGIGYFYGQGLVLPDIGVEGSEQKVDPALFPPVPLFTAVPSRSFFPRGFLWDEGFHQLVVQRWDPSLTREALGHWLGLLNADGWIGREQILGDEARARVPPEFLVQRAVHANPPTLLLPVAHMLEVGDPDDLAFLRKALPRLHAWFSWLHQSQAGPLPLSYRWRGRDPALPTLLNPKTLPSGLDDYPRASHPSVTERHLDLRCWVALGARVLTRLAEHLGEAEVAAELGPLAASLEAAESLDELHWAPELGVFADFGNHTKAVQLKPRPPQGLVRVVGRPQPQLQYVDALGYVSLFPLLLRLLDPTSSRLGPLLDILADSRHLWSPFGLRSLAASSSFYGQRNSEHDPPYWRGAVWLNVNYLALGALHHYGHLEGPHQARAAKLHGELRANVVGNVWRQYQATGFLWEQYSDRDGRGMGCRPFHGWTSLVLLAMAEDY
In words: affinity purification with mass spectrometry; IP of endogenous GCS1 from DLD-1 cell lysate with anti-GCS1 on Protein A/G magnetic beads (IgG as negative control), silver staining and LC-MS.

As to “GRP78, endogenous (from UniProt P11021 19-654)”, the binding result is given as “binds”.
